Results taken from PubChem BioAssay AID2685 (National Center for Advancing Translational Sciences (NCATS), 2010).
The list shows a part of the results. Shown are side measurements of this screen, not its main read-out; they come without a call. Compounds called inactive in the main read-out are mostly missing here. Potencies come from curve fits of mixed quality, noted in brackets.

Assay: qHTS Assay for Lipid Storage Modulators in Drosophila S3 Cells;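 as to cell number change: cells counted by Cell Tracker Red CMTPX staining in the red channel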
Conditions: BODIPY lipid droplet fluorescence, 18-24 h; for cell number change: measured here: cell count max response, cells fed with added oleic acid
In short: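 Drosophila S3 cells got compounds at several concentrations plus oleic acid (400 uM solution). Laser-scanning cytometry with 488 nm excitation read lipid droplets at 500-530 nm and cells at 575-640 nm. Percent activity was relative to 20 uM Triacsin C.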

[1] = measured here: cell number channel AC50, cells fed with added oleic acid
[2] = measured here: lipid fluorescence (Fed channel) AC50, cells fed with added oleic acid

Structure (SMILES) | cell number change [%] | AC50 [1] | AC50 [2]
COc1ccc([C@H]2[C@H](C(=O)C(C)(C)C)N3N=Cc4ccccc4C3C23C(=O)OC(C)(C)OC3=O)cc1 (stereo partly drawn) | -23.1 | 6.51 µM [rising, single point] | 2.59 µM [rising, partial curve, poor fit]
COc1ccc(C2CC(=O)c3cnc(NC(=O)c4cc(OC)cc(OC)c4)nc3C2)cc1 (stereo not drawn) | 85.4 | 18.4 µM [rising, partial curve] | 0.58 µM [rising, partial curve]
COCC(C)OC(=O)c1c(N)n(CC(C)C)c2nc3ccccc3nc12 (stereo not drawn) |  |  | 16.4 µM [rising, single point]
O=C(Nc1ccccc1)Nc1ccc2ocnc2c1 | 37.7 |  | 
CCOC(=O)c1ccc(N2C(=O)CC(N3CCC(O)(c4ccc(Cl)cc4)CC3)C2=O)cc1 (stereo not drawn) | -10.6 |  | 23.1 µM [falling, partial curve, poor fit]
Cc1cc(C)c2c(=O)[nH]n(C3CC(C)N(C)CC3C)c2n1 (stereo not drawn) | -41.7 | 3.66 µM [falling, full curve] | 
COc1ccc(-c2noc(CN(C)C(=O)Nc3ccccc3)n2)cc1 | 8.78 |  | 0.103 µM [rising, full curve]
NC(=O)COc1ccc(C23CC4CC(CC(C4)C2)C3)cc1 | -23.9 | 0.517 µM [falling, full curve, poor fit] | 0.517 µM [falling, full curve, poor fit]
COc1ccc(S(=O)(=O)N(CC(=O)N2CCN(c3ccccc3)CC2)c2ccccc2)cc1 |  |  | 0.58 µM [rising, single point]
CC(OC(=O)CNS(=O)(=O)/C=C/c1ccccc1)C(=O)Nc1ccc(S(=O)(=O)N2CCCC2)cc1 (stereo not drawn) |  | 6.51 µM [falling, partial curve, poor fit] | 
COc1ccc(-n2c(=O)/c(=C\c3cccs3)s/c2=C(/C#N)C(=O)N2CCN(C)CC2)cc1 | 20.4 |  | 6.51 µM [falling, single point]
Nc1cccc(-c2nc3cc(S(=O)(=O)c4ccc5oc(-c6cccc(N)c6)nc5c4)ccc3o2)c1 | -88.7 | 2.06 µM [falling, full curve] | 2.06 µM [falling, full curve]
O=C(NC(=S)Nc1cccc(NC(=O)c2ccccc2Cl)c1)c1cccs1 | 3.21 |  | 16.4 µM [rising, single point]
COc1ccc(CNC(=O)CSCc2cnn(-c3ccccc3)c2-n2cccc2)cc1 | 55.1 | 23.1 µM [rising, single point] | 14.6 µM [rising, single point]
CC(=O)Nc1ccc(S(=O)(=O)N2CCC(C(=O)NCCC(=O)NCc3ccccc3)CC2)cc1 | -23.8 |  | 
Cn1c(CNC(=O)c2ccco2)nnc1SCC(=O)c1ccc(Br)cc1 | 17.1 |  | 29.1 µM [rising, single point]
CCOC(=O)c1c(N)nn(C(=O)C(C)C)c1-c1ccccc1 | -71.5 | 4.11 µM [falling, partial curve, poor fit] | 6.51 µM [falling, partial curve, poor fit]
Cc1noc(C(=O)Nc2ccc(Cl)cc2)c1Cl | 15.3 |  | 
Cn1nnnc1P(=O)(c1ccccc1)c1ccccc1 | 1.3 |  | 2.31 µM [falling, full curve]
Cc1cc(C)cc(N(CC(=O)NCC2CCCO2)C(=O)CCC(=O)Nc2cc(C)on2)c1 (stereo not drawn) | 30.6 | 16.4 µM [rising, single point] | 18.4 µM [rising, partial curve]
CC(=O)CC1(C)OC(N)=C(C#N)C1(C#N)C#N (stereo not drawn) | -20.2 |  | 
CSc1nc2ccc(S(=O)(=O)N3CCCC3)cc2s1 |  |  | 0.0291 µM [falling, full curve, poor fit]
Cc1cccc(OCC(=O)N/N=C\c2cc3c(cc2[N+](=O)[O-])OCO3)c1C | 5.99 | 0.116 µM [rising, full curve, poor fit] | 0.082 µM [rising, full curve, poor fit]
COc1ccc2cc(C(=O)/C=C/c3cc(OC)c(O)c(OC)c3)ccc2c1 | -32.1 | 32.6 µM [falling, single point] | 
Cc1cc(S(=O)(=O)N2CCOCC2)ccc1OCC(=O)N1CCCC1 | 9.66 |  | 
O=C(CCC1CC(=O)Nc2ccccc21)NCc1ccccc1 (stereo not drawn) | 40.8 | 9.2 µM [rising, partial curve, poor fit] | 14.6 µM [rising, partial curve]
COCCn1c(=N)c(C(=O)NCc2ccco2)cc2c(=O)n3ccccc3nc21 | -1.48 |  | 

Structure (SMILES) | cell number change [%] | AC50 [1] | AC50 [2]
CCC(CC)C(=O)Nc1nnc(SCC(=O)N2CCN(c3ccccc3OC)CC2)s1 | 85.2 | 13 µM [rising, partial curve] | 18.4 µM [rising, partial curve]
CCCOc1ccc(C(F)(F)F)cc1NC(=O)CN1C(=O)C(=O)N(CC)C1=O | 20 |  | 0.00461 µM [rising, full curve, poor fit]
COc1ccc(-n2nnnc2SCC(=O)NCc2ccco2)cc1OC | 93.3 | 9.2 µM [rising, partial curve] | 
Cc1ccc(C(=O)N2CCN(S(=O)(=O)c3ccccc3[N+](=O)[O-])C2)cc1 | 17.4 | 0.651 µM [rising, full curve, poor fit] | 
Cc1ccc(Nc2nnc(SCC(=O)NCc3ccco3)s2)cc1 | -31.8 | 2.31 µM [falling, full curve] | 11.6 µM [falling, partial curve]
O=C(NCc1ccccc1)c1ccc(CNc2c(N3CCCC3)c(=O)c2=O)cc1 | 35.3 | 0.92 µM [rising, full curve, poor fit] | 18.4 µM [rising, single point]
O=C(NCC1CC1)NC(=O)c1c(F)cccc1Cl | 14.2 | 6.51 µM [rising, single point] | 
O=C(NNc1ncnc2sccc12)c1ccc(Cl)cc1 | 10.8 | 4.11 µM [rising, single point] | 29.1 µM [rising, single point]
Cc1[nH]c(=O)c(C#N)c(C)c1CCC(=O)Nc1cc(S(C)(=O)=O)ccc1Cl | 20.2 | 2.59 µM [rising, full curve, poor fit] | 
Cn1c(=O)c(C(=O)NCCc2ccc(Cl)cc2)c(O)c2ccccc21 | -15 |  | 20.6 µM [rising, single point]
Cc1ccc(-c2ccc(CCC(=O)O)n2C(C)C)cc1 |  | 0.0058 µM [rising, full curve, poor fit] | 0.00461 µM [rising, full curve, poor fit]
CCOC(=O)CCc1c(C)nc(SCCN2CCCC2)c(C#N)c1C | -1.36 |  | 3.66 µM [rising, single point]
CCN(CC)CCCN(Cc1cc2cc3c(cc2[nH]c1=O)OCO3)C(=S)NCCOC | 6.57 |  | 0.58 µM [rising, single point]
Cc1ccc(-c2[nH]nc3c2C(c2ccc(OC(=O)N4CCOCC4)cc2)C(C#N)=C(N)O3)cc1 (stereo not drawn) |  |  | 0.116 µM [falling, full curve, poor fit]
O=c1c2cn[nH]c2nc(SCc2ccc3c(c2)OCCO3)n1-c1ccccc1 | 51.7 | 1.3 µM [rising, full curve] | 
CN(Cc1cccc(F)c1)C(=O)c1ccccc1Sc1ccccc1C#N | -25.9 |  | 4.61 µM [falling, single point]
CC(=O)c1ccc(S(=O)(=O)Nc2ccc(N3CCOCC3)cc2)cc1 | 18.5 | 0.92 µM [rising, full curve, poor fit] | 0.116 µM [rising, partial curve, poor fit]
CCc1ccc(C(=O)CCC(=O)Nc2ccc(OC)c(S(=O)(=O)N3CCCCC3)c2)cc1 | -17 |  | 29.1 µM [falling, single point]
CN(C)N=Nc1ccc(S(=O)(=O)/N=C(\O)c2ccccc2)cc1 | 2.47 |  | 23.1 µM [rising, partial curve]
Cc1ccc(/C=N/NC(=O)CSc2nc3ccccc3c(=O)n2-c2ccccc2)s1 | -22.7 | 6.51 µM [rising, single point] | 1.64 µM [rising, full curve]
COCCNC(=O)CN(Cc1ccc(Cl)cc1)S(C)(=O)=O |  |  | 20.6 µM [falling, partial curve]
O=C(NCc1cccnc1)c1cnn2ccccc12 | 63.9 | 29.1 µM [rising, single point] | 0.00517 µM [falling, full curve, poor fit]
CC1CCCN(Cc2csc(N)n2)C1 (stereo not drawn) | -46.7 | 0.231 µM [falling, full curve, poor fit] | 20.6 µM [falling, partial curve, poor fit]
Cc1cccc(N2C(=O)c3ccccc3C2=O)n1 | -50 | 20.6 µM [falling, single point] | 
Cc1ccc(CN2CC(C(=O)Nc3cccc(C)n3)CC2=O)cc1 (stereo not drawn) | 7.99 |  | 4.61 µM [falling, full curve]
O=C(NC1CC2CCCC(C1)N2C(=O)NC1CCCCC1)c1ccccc1 (stereo not drawn) | -21.3 |  | 0.259 µM [falling, full curve, poor fit]
Fc1ccc(CO/N=C/C2=C(Cl)c3ccccc3CC2)cc1 | 5.05 |  | 5.8 µM [falling, partial curve]

Filtered by structure, the compounds so far containing a nitro group on carbon (2)
Structure (SMILES) | cell number change [%] | AC50 [1] | AC50 [2]
Cc1cccc(OCC(=O)N/N=C\c2cc3c(cc2[N+](=O)[O-])OCO3)c1C | 5.99 | 0.116 µM [rising, full curve, poor fit] | 0.082 µM [rising, full curve, poor fit]
Cc1ccc(C(=O)N2CCN(S(=O)(=O)c3ccccc3[N+](=O)[O-])C2)cc1 | 17.4 | 0.651 µM [rising, full curve, poor fit] | 
